In the supplement of paper PMC7661543:
± gives the standard deviation of the averaged measurements. The effect of the compound repeats well; differences between the knockouts mostly do not.

System: BT-20
Assay: relative cell number vs DMSO control (72 h) (% of DMSO); higher = less growth inhibition (more cells)
Method: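 QMAP-Seq: a pool of 5 breast cancer cell lines (ZR-75-1, SKBR3, HCC-38, MDA-MB-231, BT-20), each carrying 12 doxycycline-inducible Cas9 sgRNA perturbations (11 knockouts plus non-targeting sgNT), was treated with compounds for 72 h at four 10-fold doses (10 nM-10 uM or 1 nM-1 uM range). Barcodes were amplified and sequenced, and cell number was interpolated from 293T spike-in standard curves. The result is expressed as % of the median of DMSO wells. Two biological replicates.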

O=c1[nH]cc(F)c(=O)[nH]1 [5-Fluorouracil]
Details | relative cell number
sgRNA knockout: sgATF3, 10 nM | 104 ± 7.9
sgRNA knockout: sgATF3, 100 nM | 104 ± 6.5
sgRNA knockout: sgATF3, 1000 nM | 91.3 ± 4.4
sgRNA knockout: sgATF3, 10000 nM | 70.2 ± 22
sgRNA knockout: sgATF4, 10 nM | 110 ± 16
sgRNA knockout: sgATF4, 100 nM | 109 ± 8.5
sgRNA knockout: sgATF4, 1000 nM | 88.8 ± 4.1
sgRNA knockout: sgATF4, 10000 nM | 56.4 ± 12
sgRNA knockout: sgATF6, 10 nM | 90.7 ± 14
sgRNA knockout: sgATF6, 100 nM | 111 ± 32
sgRNA knockout: sgATF6, 1000 nM | 95.3 ± 22
sgRNA knockout: sgATF6, 10000 nM | 60.8 ± 13
sgRNA knockout: sgATG7, 10 nM | 107 ± 18
sgRNA knockout: sgATG7, 100 nM | 126 ± 22
sgRNA knockout: sgATG7, 1000 nM | 103 ± 6.5
sgRNA knockout: sgATG7, 10000 nM | 61.93 ± 0.074
sgRNA knockout: sgERN1, 10 nM | 94.5 ± 14
sgRNA knockout: sgERN1, 100 nM | 107 ± 4.8
sgRNA knockout: sgERN1, 1000 nM | 80 ± 2.4
sgRNA knockout: sgERN1, 10000 nM | 70.7 ± 4.5
sgRNA knockout: sgHSF1, 10 nM | 93.1 ± 4.9
sgRNA knockout: sgHSF1, 100 nM | 107 ± 3.2
sgRNA knockout: sgHSF1, 1000 nM | 91.1 ± 8.5
sgRNA knockout: sgHSF1, 10000 nM | 72.5 ± 25
sgRNA knockout: sgHSF2, 10 nM | 82 ± 12
sgRNA knockout: sgHSF2, 100 nM | 99.846 ± 0.059
sgRNA knockout: sgHSF2, 1000 nM | 86.1 ± 1.8
sgRNA knockout: sgHSF2, 10000 nM | 63.3 ± 7.9
sgRNA knockout: sgKEAP1, 10 nM | 84.6 ± 1.8
sgRNA knockout: sgKEAP1, 100 nM | 102 ± 4.5
sgRNA knockout: sgKEAP1, 1000 nM | 96.2 ± 1.2
sgRNA knockout: sgKEAP1, 10000 nM | 54.5 ± 0.58
sgRNA knockout: sgNFE2L2, 10 nM | 84.7 ± 6.4
sgRNA knockout: sgNFE2L2, 100 nM | 103 ± 13
sgRNA knockout: sgNFE2L2, 1000 nM | 81.5 ± 4.3
sgRNA knockout: sgNFE2L2, 10000 nM | 54.8 ± 20
sgRNA knockout: sgSLC35F2, 10 nM | 99.3 ± 12
sgRNA knockout: sgSLC35F2, 100 nM | 95.3 ± 2.5
sgRNA knockout: sgSLC35F2, 1000 nM | 91.9 ± 11
sgRNA knockout: sgSLC35F2, 10000 nM | 62.8 ± 16
sgRNA knockout: sgXBP1, 10 nM | 94 ± 1.1
sgRNA knockout: sgXBP1, 100 nM | 114 ± 12
sgRNA knockout: sgXBP1, 1000 nM | 105 ± 2.1
sgRNA knockout: sgXBP1, 10000 nM | 59.5 ± 4.8

O=P1(N(CCCl)CCCl)NCCCO1 (configuration not stated) [Cyclophosphamide]
Details | relative cell number
sgRNA knockout: sgATF3, 10 nM | 89.3 ± 5.2
sgRNA knockout: sgATF3, 100 nM | 106 ± 4.5
sgRNA knockout: sgATF3, 1000 nM | 100 ± 3.6
sgRNA knockout: sgATF3, 10000 nM | 99.5 ± 4.6
sgRNA knockout: sgATF4, 10 nM | 97.1 ± 1.9
sgRNA knockout: sgATF4, 100 nM | 99.4 ± 2.2
sgRNA knockout: sgATF4, 1000 nM | 101 ± 6.8
sgRNA knockout: sgATF4, 10000 nM | 99.7 ± 6.3
sgRNA knockout: sgATF6, 10 nM | 91.8 ± 4.6
sgRNA knockout: sgATF6, 100 nM | 98.6 ± 6.1
sgRNA knockout: sgATF6, 1000 nM | 85.5 ± 2.8
sgRNA knockout: sgATF6, 10000 nM | 90.3 ± 3.6
sgRNA knockout: sgATG7, 10 nM | 94.2 ± 20
sgRNA knockout: sgATG7, 100 nM | 91.76 ± 0.31
sgRNA knockout: sgATG7, 1000 nM | 87.9 ± 7.5
sgRNA knockout: sgATG7, 10000 nM | 95.7 ± 15
sgRNA knockout: sgERN1, 10 nM | 96.7 ± 22
sgRNA knockout: sgERN1, 100 nM | 90.2 ± 2.6
sgRNA knockout: sgERN1, 1000 nM | 99.2 ± 15
sgRNA knockout: sgERN1, 10000 nM | 89.5 ± 19
sgRNA knockout: sgHSF1, 10 nM | 96.57 ± 0.34
sgRNA knockout: sgHSF1, 100 nM | 86.6 ± 3
sgRNA knockout: sgHSF1, 1000 nM | 94.5 ± 19
sgRNA knockout: sgHSF1, 10000 nM | 97.2 ± 6.6
sgRNA knockout: sgHSF2, 10 nM | 96.4 ± 41
sgRNA knockout: sgHSF2, 100 nM | 99.3 ± 9.4
sgRNA knockout: sgHSF2, 1000 nM | 87.17 ± 0.18
sgRNA knockout: sgHSF2, 10000 nM | 93 ± 14
sgRNA knockout: sgKEAP1, 10 nM | 93.4 ± 20
sgRNA knockout: sgKEAP1, 100 nM | 97.8 ± 4.9
sgRNA knockout: sgKEAP1, 1000 nM | 92.1 ± 12
sgRNA knockout: sgKEAP1, 10000 nM | 90.5 ± 14
sgRNA knockout: sgNFE2L2, 10 nM | 102 ± 9.3
sgRNA knockout: sgNFE2L2, 100 nM | 99.2 ± 4.4
sgRNA knockout: sgNFE2L2, 1000 nM | 106 ± 8.2
sgRNA knockout: sgNFE2L2, 10000 nM | 107 ± 11
sgRNA knockout: sgSLC35F2, 10 nM | 92.1 ± 7.4
sgRNA knockout: sgSLC35F2, 100 nM | 92.8 ± 5
sgRNA knockout: sgSLC35F2, 1000 nM | 113 ± 11
sgRNA knockout: sgSLC35F2, 10000 nM | 108 ± 4.8
sgRNA knockout: sgXBP1, 10 nM | 97.9 ± 20
sgRNA knockout: sgXBP1, 100 nM | 93.7 ± 11
sgRNA knockout: sgXBP1, 1000 nM | 109 ± 6
sgRNA knockout: sgXBP1, 10000 nM | 107 ± 16

Nc1ccccc1NC(=O)c1ccc(CNC(=O)OCc2cccnc2)cc1 [Entinostat]
Details | relative cell number
sgRNA knockout: sgATF3, 10 nM | 87.8 ± 25
sgRNA knockout: sgATF3, 100 nM | 99.4 ± 7.6
sgRNA knockout: sgATF3, 1000 nM | 46.5 ± 3
sgRNA knockout: sgATF3, 10000 nM | 17.5 ± 7.3
sgRNA knockout: sgATF4, 10 nM | 98.4 ± 2.5
sgRNA knockout: sgATF4, 100 nM | 98.3 ± 26
sgRNA knockout: sgATF4, 1000 nM | 48.4 ± 13
sgRNA knockout: sgATF4, 10000 nM | 14.4 ± 6.1
sgRNA knockout: sgATF6, 10 nM | 103 ± 23
sgRNA knockout: sgATF6, 100 nM | 106 ± 16
sgRNA knockout: sgATF6, 1000 nM | 47 ± 2.6
sgRNA knockout: sgATF6, 10000 nM | 11.7 ± 5.4
sgRNA knockout: sgATG7, 10 nM | 94.1 ± 24
sgRNA knockout: sgATG7, 100 nM | 109.2 ± 0.11
sgRNA knockout: sgATG7, 1000 nM | 46.1 ± 4.1
sgRNA knockout: sgATG7, 10000 nM | 16.2 ± 7.1
sgRNA knockout: sgERN1, 10 nM | 102 ± 27
sgRNA knockout: sgERN1, 100 nM | 106 ± 6.1
sgRNA knockout: sgERN1, 1000 nM | 53.7 ± 3.3
sgRNA knockout: sgERN1, 10000 nM | 17.7 ± 9.2
sgRNA knockout: sgHSF1, 10 nM | 114 ± 14
sgRNA knockout: sgHSF1, 100 nM | 104 ± 9.8
sgRNA knockout: sgHSF1, 1000 nM | 52.7 ± 4.4
sgRNA knockout: sgHSF1, 10000 nM | 13.3 ± 10
sgRNA knockout: sgHSF2, 10 nM | 89.7 ± 11
sgRNA knockout: sgHSF2, 100 nM | 124 ± 19
sgRNA knockout: sgHSF2, 1000 nM | 42.7 ± 0.62
sgRNA knockout: sgHSF2, 10000 nM | 17.1 ± 7.9
sgRNA knockout: sgKEAP1, 10 nM | 85.9 ± 13
sgRNA knockout: sgKEAP1, 100 nM | 99.2 ± 2.8
sgRNA knockout: sgKEAP1, 1000 nM | 57.5 ± 2.4
sgRNA knockout: sgKEAP1, 10000 nM | 17.9 ± 6.5
sgRNA knockout: sgNFE2L2, 10 nM | 100 ± 23
sgRNA knockout: sgNFE2L2, 100 nM | 108 ± 17
sgRNA knockout: sgNFE2L2, 1000 nM | 41.8 ± 12
sgRNA knockout: sgNFE2L2, 10000 nM | 15.5 ± 4.7
sgRNA knockout: sgSLC35F2, 10 nM | 80.9 ± 23
sgRNA knockout: sgSLC35F2, 100 nM | 115 ± 7.7
sgRNA knockout: sgSLC35F2, 1000 nM | 37.78 ± 0.055
sgRNA knockout: sgSLC35F2, 10000 nM | 16.7 ± 8.1
sgRNA knockout: sgXBP1, 10 nM | 102 ± 9.6
sgRNA knockout: sgXBP1, 100 nM | 113 ± 26
sgRNA knockout: sgXBP1, 1000 nM | 53.4 ± 3.2
sgRNA knockout: sgXBP1, 10000 nM | 19.4 ± 10
